The experiment has as its target T1, N-acetyltransferase 10 (mouse (endogenous in BMDMs)) (UniProt Q8K224).
T1 sequence: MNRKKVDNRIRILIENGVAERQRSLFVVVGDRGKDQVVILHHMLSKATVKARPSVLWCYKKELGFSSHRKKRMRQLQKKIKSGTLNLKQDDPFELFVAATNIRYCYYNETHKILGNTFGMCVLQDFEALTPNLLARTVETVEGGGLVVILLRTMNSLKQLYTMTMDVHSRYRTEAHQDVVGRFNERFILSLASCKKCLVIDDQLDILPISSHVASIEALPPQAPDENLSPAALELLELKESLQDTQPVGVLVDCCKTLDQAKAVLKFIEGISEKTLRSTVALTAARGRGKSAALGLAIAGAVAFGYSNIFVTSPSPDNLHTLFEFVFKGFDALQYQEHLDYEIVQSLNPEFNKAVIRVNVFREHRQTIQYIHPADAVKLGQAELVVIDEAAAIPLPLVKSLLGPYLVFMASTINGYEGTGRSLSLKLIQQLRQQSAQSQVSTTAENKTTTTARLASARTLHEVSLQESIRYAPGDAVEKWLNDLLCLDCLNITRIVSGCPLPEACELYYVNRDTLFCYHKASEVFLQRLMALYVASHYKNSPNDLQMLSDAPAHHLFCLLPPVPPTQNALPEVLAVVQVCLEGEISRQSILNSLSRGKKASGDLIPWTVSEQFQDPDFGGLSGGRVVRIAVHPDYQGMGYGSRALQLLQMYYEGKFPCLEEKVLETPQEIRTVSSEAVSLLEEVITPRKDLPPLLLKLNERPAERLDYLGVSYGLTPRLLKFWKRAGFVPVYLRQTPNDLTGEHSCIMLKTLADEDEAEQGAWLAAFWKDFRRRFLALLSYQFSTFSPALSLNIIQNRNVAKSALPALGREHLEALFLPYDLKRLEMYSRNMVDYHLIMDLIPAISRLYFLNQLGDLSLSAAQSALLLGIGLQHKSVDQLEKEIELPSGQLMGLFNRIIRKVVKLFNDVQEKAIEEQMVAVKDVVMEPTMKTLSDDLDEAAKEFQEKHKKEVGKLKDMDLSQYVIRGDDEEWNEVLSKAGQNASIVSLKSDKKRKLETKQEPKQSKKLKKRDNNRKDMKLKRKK
In words: affinity purification with mass spectrometry; immunoprecipitation of endogenous NAT10 from LPS-treated BMDMs, mass spectrometry of the NAT10 interactome; three IP-MS groups.

These are yes or no findings as the source states them, for the method shown. In cells and extracts the contact can be indirect. A yes stands for co-enrichment or nearness to the bait. Other partners may have been found.

B1: USP39 (enzyme, UniProt Q3TIX9 1-564)
chain: MSSRSKRQSHGSTRGKRESESRGSSGRIKKERDREKEPEAASSRGSPVRVKREAEPAAREVPAPALPVVRVKREREADEDSEPEREVRAKNGRVDSEDRRSRHCPYLDTINRSVLDFDFEKLCSISLSHINAYACLVCGKYFQGRGLKSHAYIHSVQFSHHVFLNLHTLKFYCLPDNYEIIDSSLEDITYVLKPTFTKQQIANLDKQAKLSRAYDGTTYLPGIVGLNNIKANDYANAVLQALSNVPPLRNYFLEEDNYKNIKRPPGDIMFLLVQRFGELMRKLWNPRNFKAHVSPHEMLQAVVLCSKKTFQITKQGDGVDFLSWFLNALHSALGGTKKKKKTIVNDVFQGSMRIFTKKLPHPDLPAEEKEQLLHNDEYQETMVESTFMYLTLDLPTAPLYKDEKEQLIIPQVPLFNILAKFNGITEKEYKTYKENFLKRFQLTKLPPYLIFCIKRFTKNNFFVEKNPTIVNFPITNVDLREYLSEEVQAVHKNTTYDLIANIVHDGKPSEGSYRIHVLHHGTGKWYELQDLQVTDILPQMITLSEAYIQIWKRRDNDETNQQGA
For the molecule B1, the binding result is given as “binds”.

The record behind these values is PMC12216202.
